# In the supplement of paper PMC8728848:
# This is one part of the list.
# B1: Drgal1 (Danio rerio) (protein)
# chain: MAGVLIQNMSFKVGQTLTITGVPKPDSTNFAINIGHSPEDIALHMNPRFDAHGDQCTIVCNSFQSGSWCEEHRDDNFPFIQDKEFQIKITFTNEEFLVTLPDGSEIHFPNRQGSEKYKYMYFEGEVRIQGVEIK
# How the values were obtained:
# Experiment in all cases: glycan array binding signal (z-score within array); higher = stronger binding
# Details in all cases: glycan notation: IUPAC condensed, linker removed
# [1] = target: Gal3S(b1-3)[Fuc(a1-4)]GlcNAc
# Outline: (§1)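 Glycan array data came from 3228 arrays in the Consortium for Functional Glycomics database, and only arrays with an available protein sequence were kept. Glycan names were put into IUPAC-condensed notation, and columns mapping to the same glycan were averaged. The binding signal is a within-array Z-score, averaged across arrays of one protein sequence run at different concentrations or buffers and across linkers. A negative Z-score can be read as non-binding.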
# Gal3S(b1-4)Glc = target: Gal3S(b1-4)Glc
# Outline: as §1
# Gal3S(b1-4)Glc6S = target: Gal3S(b1-4)Glc6S
# Outline: as §1
# Gal3S(b1-4)GlcNAc = target: Gal3S(b1-4)GlcNAc
# Outline: as §1
# [2] = target: Gal3S(b1-4)[Fuc(a1-3)]Glc6S
# Outline: as §1
# [3] = target: Gal3S(b1-4)[Fuc(a1-3)]GlcNAc
# Outline: as §1
# [4] = target: Gal3S(b1-4)[Fuc(a1-3)]GlcNAc6S
# Outline: as §1
# Gal3S4S(b1-4)GlcNAc = target: Gal3S4S(b1-4)GlcNAc
# Outline: as §1
# Gal3S6S(b1-4)GlcNAc = target: Gal3S6S(b1-4)GlcNAc
# Outline: as §1
# Gal3S6S(b1-4)GlcNAc6S = target: Gal3S6S(b1-4)GlcNAc6S
# Outline: as §1
# Gal4S(b1-4)GlcNAc = target: Gal4S(b1-4)GlcNAc
# Outline: as §1
# Gal4S6S(b1-4)GlcNAc = target: Gal4S6S(b1-4)GlcNAc
# Outline: as §1
# Gal6P(b1-4)GlcNAc = target: Gal6P(b1-4)GlcNAc
# Outline: as §1
# Gal6S(b1-3)GlcNAc = target: Gal6S(b1-3)GlcNAc
# Outline: as §1
# Gal6S(b1-3)GlcNAc6S = target: Gal6S(b1-3)GlcNAc6S
# Outline: as §1
# Gal6S(b1-4)Glc = target: Gal6S(b1-4)Glc
# Outline: as §1
# Gal6S(b1-4)Glc6S = target: Gal6S(b1-4)Glc6S
# Outline: as §1
# Gal6S(b1-4)GlcNAc = target: Gal6S(b1-4)GlcNAc
# Outline: as §1
# Gal6S(b1-4)GlcNAc6S = target: Gal6S(b1-4)GlcNAc6S
# Outline: as §1
# GalNAc(a1-3)Gal = target: GalNAc(a1-3)Gal
# Outline: as §1
# GalNAc(a1-3)GalNAc = target: GalNAc(a1-3)GalNAc
# Outline: as §1
# [5] = target: GalNAc(a1-3)GalNAc(b1-3)Gal(a1-4)Gal(b1-4)Glc
# Outline: as §1
# [6] = target: GalNAc(a1-3)GalNAc(b1-3)Gal(a1-4)Gal(b1-4)GlcNAc
# Outline: as §1
# GalNAc(b1-3)Gal = target: GalNAc(b1-3)Gal
# Outline: as §1
# [7] = target: GalNAc(b1-3)Gal(a1-4)Gal(b1-4)GlcNAc
# Outline: as §1
# [8] = target: GalNAc(b1-3)Gal(a1-4)Gal(b1-4)GlcNAc(b1-3)Gal(b1-4)Glc
# Outline: as §1
# [9] = target: GalNAc(b1-3)Gal(a1-6)Gal(b1-4)Glc
# Outline: as §1
# GalNAc(b1-3)GalNAc = target: GalNAc(b1-3)GalNAc
# Outline: as §1
# GalNAc(b1-3)GlcNAc = target: GalNAc(b1-3)GlcNAc
# Outline: as §1
# GalNAc(b1-4)Gal(b1-4)Glc = target: GalNAc(b1-4)Gal(b1-4)Glc
# Outline: as §1
# GalNAc(b1-4)GlcNAc = target: GalNAc(b1-4)GlcNAc
# Outline: as §1
# [10] = target: GalNAc(b1-4)GlcNAc(b1-2)Man
# Outline: as §1
# [11] = target: GalNAc(b1-4)GlcNAc(b1-2)Man(a1-3)[GalNAc(b1-4)GlcNAc(b1-2)Man(a1-6)]Man(b1-4)GlcNAc(b1-4)GlcNAc
# Outline: as §1
# [12] = target: GalNAc(b1-4)GlcNAc(b1-3)GalNAc(b1-4)GlcNAc
# Outline: as §1
# GalNAc(b1-4)GlcNAc6S = target: GalNAc(b1-4)GlcNAc6S
# Outline: as §1
# GalNAc(b1-6)GalNAc = target: GalNAc(b1-6)GalNAc
# Outline: as §1
# GalNAc3S(b1-4)GlcNAc = target: GalNAc3S(b1-4)GlcNAc
# Outline: as §1
# GalNAc3S(b1-4)GlcNAc3S = target: GalNAc3S(b1-4)GlcNAc3S
# Outline: as §1
# [13] = target: GalNAc3S(b1-4)[Fuc(a1-3)]GlcNAc
# Outline: as §1
# GalNAc4S6S(b1-4)GlcNAc = target: GalNAc4S6S(b1-4)GlcNAc
# Outline: as §1
# GalNAc6S(b1-4)GlcNAc = target: GalNAc6S(b1-4)GlcNAc
# Outline: as §1
# Glc(a1-4)Glc = target: Glc(a1-4)Glc
# Outline: as §1
# [14] = target: Glc(a1-4)Glc(a1-4)Glc(a1-4)Glc
# Outline: as §1
# Glc(a1-6)Glc(a1-6)Glc = target: Glc(a1-6)Glc(a1-6)Glc
# Outline: as §1
# [15] = target: Glc(a1-6)Glc(a1-6)Glc(a1-6)Glc
# Outline: as §1
binder,measurement,setting,value
B1,glycan array binding signal (z-score),[1],-0.221
same,glycan array binding signal (z-score),Gal3S(b1-4)Glc,0.061
same,glycan array binding signal (z-score),Gal3S(b1-4)Glc6S,0.209
same,glycan array binding signal (z-score),Gal3S(b1-4)GlcNAc,-0.112
same,glycan array binding signal (z-score),[2],0.825
same,glycan array binding signal (z-score),[3],-0.33
same,glycan array binding signal (z-score),[4],0.275
same,glycan array binding signal (z-score),Gal3S4S(b1-4)GlcNAc,-0.506
same,glycan array binding signal (z-score),Gal3S6S(b1-4)GlcNAc,0.261
same,glycan array binding signal (z-score),Gal3S6S(b1-4)GlcNAc6S,1.16
same,glycan array binding signal (z-score),Gal4S(b1-4)GlcNAc,-0.088
same,glycan array binding signal (z-score),Gal4S6S(b1-4)GlcNAc,-0.349
same,glycan array binding signal (z-score),Gal6P(b1-4)GlcNAc,-0.758
same,glycan array binding signal (z-score),Gal6S(b1-3)GlcNAc,-0.889
same,glycan array binding signal (z-score),Gal6S(b1-3)GlcNAc6S,-0.095
same,glycan array binding signal (z-score),Gal6S(b1-4)Glc,0.281
same,glycan array binding signal (z-score),Gal6S(b1-4)Glc6S,-0.167
same,glycan array binding signal (z-score),Gal6S(b1-4)GlcNAc,-0.993
same,glycan array binding signal (z-score),Gal6S(b1-4)GlcNAc6S,-0.637
same,glycan array binding signal (z-score),GalNAc(a1-3)Gal,-0.226
same,glycan array binding signal (z-score),GalNAc(a1-3)GalNAc,0.206
same,glycan array binding signal (z-score),[5],-0.584
same,glycan array binding signal (z-score),[6],0.088
same,glycan array binding signal (z-score),GalNAc(b1-3)Gal,0.396
same,glycan array binding signal (z-score),[7],1.19
same,glycan array binding signal (z-score),[8],0.061
same,glycan array binding signal (z-score),[9],-0.416
same,glycan array binding signal (z-score),GalNAc(b1-3)GalNAc,0.158
same,glycan array binding signal (z-score),GalNAc(b1-3)GlcNAc,-0.433
same,glycan array binding signal (z-score),GalNAc(b1-4)Gal(b1-4)Glc,-0.603
same,glycan array binding signal (z-score),GalNAc(b1-4)GlcNAc,3.67
same,glycan array binding signal (z-score),[10],-0.681
same,glycan array binding signal (z-score),[11],0.413
same,glycan array binding signal (z-score),[12],-0.487
same,glycan array binding signal (z-score),GalNAc(b1-4)GlcNAc6S,0.025
same,glycan array binding signal (z-score),GalNAc(b1-6)GalNAc,-0.348
same,glycan array binding signal (z-score),GalNAc3S(b1-4)GlcNAc,-0.268
same,glycan array binding signal (z-score),GalNAc3S(b1-4)GlcNAc3S,-0.279
same,glycan array binding signal (z-score),[13],0.012
same,glycan array binding signal (z-score),GalNAc4S6S(b1-4)GlcNAc,-0.11
same,glycan array binding signal (z-score),GalNAc6S(b1-4)GlcNAc,-0.506
same,glycan array binding signal (z-score),Glc(a1-4)Glc,-0.118
same,glycan array binding signal (z-score),[14],0.069
same,glycan array binding signal (z-score),Glc(a1-6)Glc(a1-6)Glc,-0.376
same,glycan array binding signal (z-score),[15],0.377

# Two successive records already listed:
binder,measurement,setting,value
B1,glycan array binding signal (z-score),Glc(a1-4)Glc,-0.118
same,glycan array binding signal (z-score),[14],0.069
